The target of experiment [1] is MYD88 (human, endogenous in primary monocyte-derived macrophages) (human (endogenous in monocyte-derived macrophages)) (UniProt Q99836). Nature of the experiment: co-IP; endogenous proteins in primary human monocyte-derived macrophages after LPS exposure; immunoblot.
Experiment [2] addresses MyD88 (mouse, endogenous in bone marrow derived macrophages) (mouse (endogenous in BMDM)) (UniProt P22366). The experiment in a line: co-IP; endogenous proteins in lysates of primary murine BMDM (wildtype C57BL/6; for IRAK4 also Tlr5-deficient) after 100 ng/mL ultrapure LPS for indicated times; lysis in 0.5% TritonX-100, 20 mM HEPES pH 7.4, 150 mM NaCl, 1.5 mM MgCl2, 2 mM EGTA; protein G-Sepharose; immunoblot. A general note: A western blot detects proteins with antibodies after separation by electrophoresis.

Amino acid sequences for entries named in this document (tags omitted). Residues count along the entry.
UniProt Q99836: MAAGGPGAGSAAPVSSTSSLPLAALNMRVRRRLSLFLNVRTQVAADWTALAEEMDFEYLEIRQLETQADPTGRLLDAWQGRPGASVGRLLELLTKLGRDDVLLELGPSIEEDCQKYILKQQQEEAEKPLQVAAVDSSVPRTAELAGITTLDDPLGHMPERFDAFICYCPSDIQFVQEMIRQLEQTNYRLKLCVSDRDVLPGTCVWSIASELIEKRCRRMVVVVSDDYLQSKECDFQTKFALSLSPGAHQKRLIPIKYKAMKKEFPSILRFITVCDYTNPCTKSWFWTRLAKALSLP
UniProt P22366: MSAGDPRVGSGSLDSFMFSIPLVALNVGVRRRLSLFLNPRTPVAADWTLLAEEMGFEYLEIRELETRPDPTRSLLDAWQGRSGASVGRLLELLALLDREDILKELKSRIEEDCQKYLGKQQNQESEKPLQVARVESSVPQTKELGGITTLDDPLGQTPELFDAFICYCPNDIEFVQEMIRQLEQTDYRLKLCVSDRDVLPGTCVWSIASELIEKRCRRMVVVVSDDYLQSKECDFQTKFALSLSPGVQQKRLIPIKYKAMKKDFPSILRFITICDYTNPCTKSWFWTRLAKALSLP
UniProt O00206, residues 24-839: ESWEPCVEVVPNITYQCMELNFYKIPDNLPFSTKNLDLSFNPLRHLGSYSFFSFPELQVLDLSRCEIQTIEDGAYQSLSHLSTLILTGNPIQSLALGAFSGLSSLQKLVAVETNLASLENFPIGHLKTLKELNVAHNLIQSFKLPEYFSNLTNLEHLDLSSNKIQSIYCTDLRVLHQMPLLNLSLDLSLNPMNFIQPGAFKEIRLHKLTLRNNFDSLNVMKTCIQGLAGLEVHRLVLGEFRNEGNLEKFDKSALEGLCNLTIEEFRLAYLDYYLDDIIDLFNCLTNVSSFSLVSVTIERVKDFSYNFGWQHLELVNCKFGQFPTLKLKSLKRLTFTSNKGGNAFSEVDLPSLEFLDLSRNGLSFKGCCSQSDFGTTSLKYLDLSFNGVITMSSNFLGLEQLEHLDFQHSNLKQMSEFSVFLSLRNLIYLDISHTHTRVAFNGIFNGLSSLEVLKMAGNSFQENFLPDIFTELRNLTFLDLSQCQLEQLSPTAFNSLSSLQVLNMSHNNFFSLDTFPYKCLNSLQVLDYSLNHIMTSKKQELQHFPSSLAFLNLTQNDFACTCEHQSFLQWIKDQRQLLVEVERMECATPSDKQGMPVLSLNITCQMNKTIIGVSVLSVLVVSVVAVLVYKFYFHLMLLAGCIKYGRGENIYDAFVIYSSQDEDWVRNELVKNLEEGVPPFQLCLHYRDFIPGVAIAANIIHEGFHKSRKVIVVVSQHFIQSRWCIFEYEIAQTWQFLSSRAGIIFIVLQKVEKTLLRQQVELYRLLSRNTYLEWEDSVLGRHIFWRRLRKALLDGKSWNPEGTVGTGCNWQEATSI
UniProt Q9QUK6, residues 26-835: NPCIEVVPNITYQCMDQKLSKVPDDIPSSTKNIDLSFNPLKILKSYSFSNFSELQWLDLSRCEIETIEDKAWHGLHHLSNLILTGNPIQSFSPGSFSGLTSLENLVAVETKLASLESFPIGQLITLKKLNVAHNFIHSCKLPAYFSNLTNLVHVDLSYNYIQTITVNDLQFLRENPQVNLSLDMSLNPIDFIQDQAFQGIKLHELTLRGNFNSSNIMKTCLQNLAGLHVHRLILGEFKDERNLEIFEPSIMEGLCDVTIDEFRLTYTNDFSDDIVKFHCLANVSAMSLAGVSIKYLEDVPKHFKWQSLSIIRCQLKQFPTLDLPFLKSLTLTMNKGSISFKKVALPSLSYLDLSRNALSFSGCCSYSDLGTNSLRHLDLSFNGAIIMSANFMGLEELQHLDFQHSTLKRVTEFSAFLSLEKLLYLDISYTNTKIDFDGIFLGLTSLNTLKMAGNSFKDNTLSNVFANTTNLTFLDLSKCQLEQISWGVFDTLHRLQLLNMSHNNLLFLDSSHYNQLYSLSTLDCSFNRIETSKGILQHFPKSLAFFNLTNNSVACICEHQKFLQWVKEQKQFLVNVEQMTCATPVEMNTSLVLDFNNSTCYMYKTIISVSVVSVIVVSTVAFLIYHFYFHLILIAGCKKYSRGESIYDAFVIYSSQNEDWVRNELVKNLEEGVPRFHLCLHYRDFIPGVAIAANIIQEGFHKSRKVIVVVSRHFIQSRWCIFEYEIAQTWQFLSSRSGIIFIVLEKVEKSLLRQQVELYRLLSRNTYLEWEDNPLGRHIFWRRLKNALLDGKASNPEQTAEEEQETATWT

Results are given in words; binding and its absence hold for the method and conditions named. In cells and extracts the contact can be indirect. Some results given as binding are weak or reduced against the parent protein; the word gives no strength.

As to “TLR4 (human, endogenous in primary monocyte-derived macrophages) (from UniProt O00206 24-839) (receptor)”, the binding entry in experiment [1] is listed as “binds”.
For the substance “TLR4 (mouse, endogenous in bone marrow derived macrophages) (from UniProt Q9QUK6 26-835) (receptor)”, in experiment [2], the binding entry is listed as “binds”.
